Measurements taken from US20100129365A1.
Residue numbers refer to the chain shown, from its start. These are yes or no findings as the source states them, for the method shown. Some binding calls cover weakened binding; strength is not graded here. For part of these data: Tags and fused reporters may be left off the sequences shown.

Amino acid sequences for entries named in this document (tags omitted). A change or cut given only in a name is not applied to a line headed by its entry.
UniProt Q10589: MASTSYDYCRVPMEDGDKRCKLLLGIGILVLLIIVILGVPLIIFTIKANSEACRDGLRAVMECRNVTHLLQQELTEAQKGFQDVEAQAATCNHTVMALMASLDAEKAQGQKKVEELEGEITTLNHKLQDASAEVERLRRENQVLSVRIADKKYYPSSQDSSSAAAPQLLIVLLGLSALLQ

T1: mouse Damp1 decoy (soluble Damp1 protein fragment, His tagged) (mouse) (UniProt Q8R2Q8)
T1 sequence: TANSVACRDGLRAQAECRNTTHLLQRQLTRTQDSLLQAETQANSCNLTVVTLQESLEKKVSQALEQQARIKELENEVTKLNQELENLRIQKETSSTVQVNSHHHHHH

B1: anti-Bst2/Damp1 clone 2-10 (Fab, V domains shown)
VH: AQSLEESGGRLVKPDETLTLTCTVSGIDLSSYMIYWVRQAPGKGLEYIGFIYGSGDTYYATWAKGRFTISRPSTTVDLKITSPTTGDTATYFCARSSGWGYGLDLWGPGTLVTISS
VL: ELDLTQTPSSTSTAVGGTVTINCQASQSINVWLSWYQQKPGQPPKLLIYQASKLASGVPSRFKGSGSGTQFTLTISGVQREDVATYYCLGIYNDIDTAFGGGTEVVVKR
B2: anti-Bst2/Damp1 clone 2-4 (Fab, V domains shown)
VH: AQQLVESGGRLVTPGGTLTLTCTASGIDLSSYHMQWVRQAPGKGLEYIGFIDTVGSAYYASWAKGRFTISRTSTTVDLKMTSLTAADTATYFCAGDSGYSIGTLWGQGTLVTVSS
VL: ELVLTQTPSSVSAAVGGTVTINCQATQSIGINLAWYQQKPGQPPKLLIWYASDLASGVPSRFKGSGFGTQFTLTINGVQREDAATYYCLGSYGSGDRAFGAGTNVEIKR
B3: anti-Bst2/Damp1 clone 2-5 (Fab, V domains shown)
VH: QQQLVESGGGLVTPGTPLTLTCTVSGFSLSSYAMIWVRQAPGKGLEYIGIIRSSGNTYYASWAKGRFTISKTSTTVDLKITSPTTEDTATYFCARDSGYSFGLWGQGTLVTVSS
VL: B2 VL with L4M, T26S, Q27K, S28N, L46Q
B4: anti-Bst2/Damp1 clone 2-7 (Fab, V domains shown)
VH: AQSVKESEGGLFKPTDTLTLTCTVSGFSLSSHEMNWVRQAPGNGLEYIGIINSYANTYYAGWAKSRSTITRNTNENTVTLTMTSLTAADTATYFCVRDLGYSSDIWGPGTLVTISS
VL: B2 VL with L4M, V11T, A13T, T26S, S28N, N76S
B5: anti-Bst2/Damp1 clone 2-9 (Fab, V domains shown)
VH: AQSLEESGGRLVTPGTPLTLTCTVSGIDLSSYEMSWVRQAPGKGLEYIGFISTSGNTYYASWAKGRFTISKTSTTVDLKITSPTIEDTAAYFCARGPAKSGYGTRLDLWGQGTLVTVSS
VL: B2 VL with V3D, V11T, A13T, T26S, S28N, Y36F, N76S, G77N, Q79E, S91T
B6: anti-Bst2/Damp1 clone 2-11 (Fab, V domains shown)
VH: QEQLMESGGGLVTPGGILSLTCTASGFSISSYRMGWVRQAPGKGLEWIGFINNYGSAYYASWAKSRSTITRNTNLNTVTLKMTSLTAADTATYFCARESYSYGYAYDIWGPGTLVTVSS
VL: ELDLTQTPSSTSTTVGGTVTINCRASQIIGINLAWYQQKPGQPPKLLIWYASDLASGVPSRFRGNVSGSQFTLTISGVQREDAATYYCLGTYGSGVRAFGAGTNVEIKR
B7: anti-Bst2/Damp1 clone 2-13 (Fab, V domains shown)
VH: QEQLVESGGRLVTPGGSLTITCTVSGIDLSGYAMGWVRQAPGKGLEYIGIIGTSDTTYYASWAKGRFTISKTSSTTVDLKMTSLTTEDTATYFCVRSPGGSADLWGQGTLVTISS
VL: ELDMTQTPSSTSTAVGGTVTMNCQASQNIGINLAWYQQKPGQPPKLLIWYASDLASGVPSRFKGSGFGTQFTLTISGMQREDAATYYCLGTYGSGVRAFGAGTNVEIKR
B8: anti-Bst2/Damp1 clone 2-19 (Fab, V domains shown)
VH: AQSVKESEGGLFKPTDTLTLTCTVSGFSLSSYEMNWVRQAPGKGLEYIGIIRSDGSTYYASWAKSRSTITRNTNLNTVTLKMTSLTAADTATYFCARDLGYSNDVWGPGTLVTISS
VL: B7 VL with D3V, M4L, M21I, A51T, K63R, G77A, M78I
B9: anti-Bst2/Damp1 clone 2-24 (Fab, V domains shown)
VH: AQSVEESRGGLFKPTDTLTLTCTVSGFSLSTYEMNWVRQAPGSGLEYIGIINSAGTTYYASWAKSRSTITRNTNENTVTLKMTSLTAADTATYFCARDLGYSSDIWGPGTLVTVSS
VL: B7 VL with D3V, M21I, V58A, M78V, V96D, A101T
B10: anti-Bst2/Damp1 clone 2-15 (Fab, V domains shown)
VH: AQSVKESEGRLVTPGTPLTLTCTVSGFSLSNSGMSWVRQAPGKGLEWIGLINSYGTTYYASWAKGRFTISKTSTTVELKITSPTTEDTATYFCARGAGSSYGLWGQGTLVTVSS
VL: ELVMTQTPSSTSTAVGDTVTIKCQASQSIGSNLAWYQQKPGQPPKILIYSASNLASGVPSRFKGSGSGTEYTLTISGVQREDAATYYCLGSDSSWDTVFGGGTELEILR
B11: anti-Bst2/Damp1 clone 2-14 (Fab, V domains shown)
VH: B8 VH with I114V
VL: B7 VL with M4L, M21I, P59S, M78V, V96D

Experiments:
[1] = target: human Bst2 decoy (soluble Bst2 protein fragment, six-histidine tagged) (human) (UniProt Q10589); test: phage ELISA on coated Bst2 decoy, anti-HA-HRP detection
[2] = target: T1, mouse Damp1 decoy (soluble Damp1 protein fragment, His tagged) (mouse); test: phage ELISA on coated Damp1 decoy, anti-HA-HRP detection

binding [1]	binding [2]	Binder
binds	binds	B1
binds	binds	B2
binds	binds	B3
binds	–	B4
binds	binds	B5
binds	–	B6
binds	binds	B7
binds	–	B8
binds	–	B9
binds	binds	B10
binds	binds	B11
